Test results: PubChem BioAssay AID662 (National Center for Advancing Translational Sciences (NCATS), 2007)
This is one part of the list. The main result of the screen is listed elsewhere. These columns were measured beside it and carry no call. Compounds called inactive in the main read-out are mostly missing here. Potencies come from curve fits of mixed quality, noted in brackets.

experiment: Cell signaling CRE-BLA (Fsk stim); conditions: CHO CRE-bla reporter (cAMP response element driving beta-lactamase), forskolin EC10, beta-lactamase ratio; measured here: 460 nm blue channel
Method in brief: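 Titrated compounds plus EC10 NKH 477 on CHO CRE-bla cells, 3 h, 37 °C. CCF4, 2 h RT. Ratio 460/530 nm → AC50.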

| Compound | AC50 |
| --- | --- |
| CC(C)=CCC/C(C)=C/COc1c2ccoc2cc2oc(=O)ccc12 | 12.6 µM [rising, partial curve] |
| O=c1c(-c2ccc(F)cc2)nc2cnc(Oc3cccc(Cl)c3)nc2n1C[C@H]1CCCO1 | 12.6 µM [rising, partial curve] |
| O=C(Nc1ccc2nc(C3CC3)n(Cc3ccc(F)cc3)c(=O)c2c1)c1ccco1 | 0.2 µM [falling, full curve] |
| C[C@@H]1C(=O)O[C@H]2[C@@H](O)[C@@]34[C@H]5C[C@H](C(C)(C)C)[C@@]36[C@H](OC(=O)[C@@H]6O)O[C@@]4(C(=O)O5)[C@@]12O | 25.1 µM [falling, partial curve, poor fit] |
| COc1cc(Cc2cnc(N)nc2N)cc(OC)c1OC | 2.51 µM [falling, full curve, poor fit] |
| CCc1ccc(NC2CC(=O)N(c3ccc(OC)cc3OC)C2=O)cc1 (configuration not stated) | 0.631 µM [rising, single point] |
| Cc1ccc2cc3c(NC(=O)C(C)C)nn(C)c3nc2c1 | 12.6 µM [rising, partial curve] |
| CC(=O)N1CCC2(CC1)CCN(c1cccc(-c3ccccc3)c1)CC2 | 12.6 µM [rising, partial curve] |
| FC(F)(F)c1cnc2c(c1)Nc1ccccc1S2 | 3.16 µM [falling, partial curve] |
| COc1ccc(Cl)cc1NS(=O)(=O)c1cc(Cl)ccc1OC | 0.794 µM [falling, full curve] |
| CCc1ccc(CNc2ccc3c(c2)ncn3C)cc1 | 12.6 µM [falling, partial curve] |
| CCc1nc(Nc2ccncc2)c2oc3ccccc3c2n1 | 10 µM [rising, partial curve] |
| CCOC(=O)c1[nH]c(C)c(C(=O)OCc2c(C)noc2C)c1C | 1.58 µM [rising, full curve] |
| O=C(NC1CCCCCC1)C1c2ccccc2C(=O)N1CCCN1CCOCC1 (configuration not stated) | 25.1 µM [rising, single point] |
| COc1ccc(OC)c(C2C(C(C)=O)=C(O)C(=O)N2c2ccc(F)cc2)c1 (configuration not stated) | 1 µM [falling, single point] |
| CCSC(=Nc1ccccc1)C1=C(O)COC1=O | 6.31 µM [falling, partial curve] |
| Cn1c(=O)[nH]c(=O)c2c1nc(CN(Cc1ccccc1)Cc1ccccc1)n2CCN1CCOCC1 | 2.51 µM [rising, single point] |
| CCOc1ccccc1N(CC)C(=O)Cn1ncc2c(=O)oc3ccccc3c21 | 5.01 µM [rising, partial curve] |
| CN(C)c1ncc2nc(CCc3ccccc3)c(=O)n(Cc3cccs3)c2n1 | 12.6 µM [rising, partial curve] |
| Cc1cccc(-c2nnc3sc(-c4ccccc4C)nn23)c1 | 25.1 µM [falling, single point] |
| CCN(CC)CCN1C(=O)C(=O)/C(=C(/O)c2ccc(OC)c(OC)c2)C1c1ccccn1 (configuration not stated) | 5.01 µM [rising, full curve] |

Exported field by field: entries from further up
Cc1ccc2cc3c(NC(=O)C(C)C)nn(C)c3nc2c1
  AC50: 12.6 µM [rising, partial curve]
CC(=O)N1CCC2(CC1)CCN(c1cccc(-c3ccccc3)c1)CC2
  AC50: 12.6 µM [rising, partial curve]
FC(F)(F)c1cnc2c(c1)Nc1ccccc1S2
  AC50: 3.16 µM [falling, partial curve]

Next part:

| Compound | AC50 |
| --- | --- |
| COc1ccc(Cn2nnnc2CN2CCC(c3nc4ccccc4s3)CC2)cc1 | 12.6 µM [rising, partial curve] |
| N#CC1=C(N)Oc2n[nH]c(-c3cccs3)c2C1c1ccco1 (configuration not stated) | 3.98 µM [falling, partial curve] |
| COc1cc(-c2nnc(CSc3nnc4nc(C)cc(C)n34)o2)cc(OC)c1OC | 12.6 µM [rising, single point] |
| Fc1ccc(Cn2nnnc2CN2CCc3ccccc3C2)cc1 | 2.51 µM [falling, single point] |
| COc1ccc(CNC(=O)COC(=O)c2n[nH]c3ccccc23)cc1OC | 12.6 µM [rising, partial curve] |
| CN(C)C(=O)c1ccc(-c2nc(Nc3ccncc3)c3ccccc3n2)cc1 | 10 µM [rising, partial curve] |
| CCC(CC)C(=O)Nc1cccc(C(=O)N2CCCCCC2)c1 | 0.00398 µM [falling, full curve, poor fit] |
| O=C(c1cc2c(s1)-c1ccccc1OC2)N1CCCC1 | 20 µM [falling, single point] |
| COC(=O)[C@@]1(Cc2ccc(OC)cc2)[C@H]2c3cc(C(=O)N(C)C)n(Cc4ccc(O)c(OC)c4)c3C[C@H]2CN1C(=O)c1ccccc1 | 1.58 µM [rising, partial curve] |
| CC(=O)Nc1ccc(NC(=O)Cn2cnc3c(cnn3C(C)(C)C)c2=O)cc1 | 15.8 µM [rising, single point] |
| CC(C)(C)c1csc(NC(=O)CSc2nc3ccccc3c(=O)[nH]2)n1 | 12.6 µM [rising, partial curve, poor fit] |
| CN(C)CCC(=O)c1ccc2c(c1)OCO2 | 3.98 µM [falling, partial curve] |
| CCCN1C(=O)c2ccccc2NC1c1ccc(OC)cc1OC (configuration not stated) | 5.01 µM [rising, single point] |
| CCN1CCN(c2c(Cl)cccc2NC(=O)c2ccc3c(c2)OCCO3)CC1 | 3.16 µM [rising, full curve, poor fit] |
| CCC[C@H]1C(=O)N2C(N(C)C)=Nc3ccc(C)cc3N2C1=O | 3.98 µM [rising, partial curve] |
| N#CC1=C(N)Oc2nc(-c3ccccc3)[nH]c2C1c1cccnc1 (configuration not stated) | 6.31 µM [rising, partial curve] |
| COCCn1cc(C(=O)N2CCCC(C)C2)c2c3ccccc3n(C)c2c1=O (configuration not stated) | 12.6 µM [rising, single point] |
| N=c1c(C(=O)NCc2ccco2)cc2c(=O)n3ccccc3nc2n1CCc1ccccc1 | 10 µM [rising, partial curve] |
| CCOC(=O)c1c(C)[nH]c(C(=O)OC)c1CCC(=O)OC | 10 µM [rising, partial curve] |
| CCCC[C@H]1C(=O)N(c2ccccc2)N(c2ccc(O)cc2)C1=O | 10 µM [falling, single point] |
| Cc1noc(C)c1C(=O)Nc1ccccc1-c1ccccc1 | 1.58 µM [falling, full curve] |
